Paper PMC13091039
These are yes or no findings as the source states them, for the method shown. In cells and extracts the contact can be indirect. Some binding calls cover weakened binding; strength is not graded here. Where a sequence is shown, tags or fusion partners need not be part of it. Blank lines part the entries; values can stand above or below the substance they belong to.

Chains of the proteins cited; added tags and fusions are not shown.
UniProt P49407: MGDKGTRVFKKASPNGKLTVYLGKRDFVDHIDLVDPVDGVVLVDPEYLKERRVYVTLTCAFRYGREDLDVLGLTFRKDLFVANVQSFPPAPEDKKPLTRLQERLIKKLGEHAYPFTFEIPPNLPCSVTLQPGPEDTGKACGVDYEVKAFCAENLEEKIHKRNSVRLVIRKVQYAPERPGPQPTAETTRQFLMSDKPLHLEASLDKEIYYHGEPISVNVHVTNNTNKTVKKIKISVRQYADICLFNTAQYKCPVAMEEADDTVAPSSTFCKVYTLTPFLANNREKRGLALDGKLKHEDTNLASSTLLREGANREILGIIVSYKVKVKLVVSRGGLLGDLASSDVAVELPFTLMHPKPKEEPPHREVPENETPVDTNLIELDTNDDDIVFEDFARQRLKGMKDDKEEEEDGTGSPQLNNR

How the values were obtained:
[1] = biological target: T1, APC-activated protease-activated receptor-1 fused to yellow fluorescent protein (PAR1-YFP WT after cleavage at R46) (human); test: FRET or BRET; as a1, cells pretreated with 10 μM vorapaxar for 30 min
T1 sequence: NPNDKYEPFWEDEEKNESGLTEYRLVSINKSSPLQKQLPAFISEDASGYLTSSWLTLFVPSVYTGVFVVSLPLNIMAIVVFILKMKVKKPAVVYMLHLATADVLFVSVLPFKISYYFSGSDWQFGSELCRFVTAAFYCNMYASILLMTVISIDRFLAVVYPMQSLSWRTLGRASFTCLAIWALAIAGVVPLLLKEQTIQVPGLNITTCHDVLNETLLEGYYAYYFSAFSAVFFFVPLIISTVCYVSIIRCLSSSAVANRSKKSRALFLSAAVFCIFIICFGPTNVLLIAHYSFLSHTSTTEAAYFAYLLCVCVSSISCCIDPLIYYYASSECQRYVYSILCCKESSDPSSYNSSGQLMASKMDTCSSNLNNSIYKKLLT

[2] = biological target: T2, thrombin-activated protease-activated receptor-1 fused to yellow fluorescent protein (PAR1-YFP WT after cleavage at R41) (human); test: as above
T2 sequence: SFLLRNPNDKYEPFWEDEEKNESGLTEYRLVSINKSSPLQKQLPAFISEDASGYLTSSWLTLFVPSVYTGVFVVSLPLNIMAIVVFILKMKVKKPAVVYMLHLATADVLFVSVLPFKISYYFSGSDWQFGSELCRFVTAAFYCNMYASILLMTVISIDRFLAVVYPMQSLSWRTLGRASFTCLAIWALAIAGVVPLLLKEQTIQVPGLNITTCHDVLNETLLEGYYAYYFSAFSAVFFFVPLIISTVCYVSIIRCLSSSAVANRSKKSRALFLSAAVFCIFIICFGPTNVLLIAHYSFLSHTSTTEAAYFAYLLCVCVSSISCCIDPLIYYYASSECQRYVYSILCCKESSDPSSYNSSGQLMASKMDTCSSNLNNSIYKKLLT

[3] = biological target: T1, APC-activated protease-activated receptor-1 fused to yellow fluorescent protein (PAR1-YFP WT after cleavage at R46) (human); test: FRET or BRET; as a1, HEK293 cells without EPCR co-expression, stimulated with APC
[4] = biological target: T2, thrombin-activated protease-activated receptor-1 fused to yellow fluorescent protein (PAR1-YFP WT after cleavage at R41) (human); test: FRET or BRET; HEK293 GRK2,3,5,6 KO cells with pcDNA3 instead of GRK5, with PAR1-YFP, EPCR-Halo and Rluc-βarr2; 1 nM thrombin or 20 nM APC, 37°C
[5] = biological target: T1, APC-activated protease-activated receptor-1 fused to yellow fluorescent protein (PAR1-YFP WT after cleavage at R46) (human); test: FRET or BRET; HEK293 GRK2,3,5,6 KO cells re-expressing GRK5 WT, with PAR1-YFP (WT or mutant), EPCR-Halo and Rluc-βarr2; 1 nM thrombin or 20 nM APC, 37°C
[6] = biological target: T1, APC-activated protease-activated receptor-1 fused to yellow fluorescent protein (PAR1-YFP WT after cleavage at R46) (human); test: condition: only GRK2,3,5,6 KO cells without GRK5 (pcDNA3); FRET or BRET; HEK293 GRK2,3,5,6 KO cells with pcDNA3 instead of GRK5, with PAR1-YFP, EPCR-Halo and Rluc-βarr2; 1 nM thrombin or 20 nM APC, 37°C
[7] = biological target: T1, APC-activated protease-activated receptor-1 fused to yellow fluorescent protein (PAR1-YFP WT after cleavage at R46) (human); test: condition: only GRK2,3,5,6 KO cells with catalytically inactive GRK5 K215R; FRET or BRET; HEK293 GRK2,3,5,6 KO cells expressing catalytically inactive GRK5 K215R, with PAR1-YFP, EPCR-Halo and Rluc-βarr2; 1 nM thrombin or 20 nM APC, 37°C
[8] = biological target: T2, thrombin-activated protease-activated receptor-1 fused to yellow fluorescent protein (PAR1-YFP WT after cleavage at R41) (human); test: as above
[9] = biological target: T1, APC-activated protease-activated receptor-1 fused to yellow fluorescent protein (PAR1-YFP WT after cleavage at R46) (human); test: FRET or BRET; HEK293 parental cells expressing PAR1-YFP (WT or mutant), Rluc-βarr2 and EPCR(-Halo) (thrombin also without EPCR); 5 μM coelenterazine H, then 1 nM thrombin or 20 nM APC; BRET (530/480 nm) over time at 37°C, percent over basal
[10] = biological target: T1, APC-activated protease-activated receptor-1 fused to yellow fluorescent protein (PAR1-YFP WT after cleavage at R46) (human); test: condition: only GRK2,3,5,6 KO cells with the GRK5 4A mutant; FRET or BRET; HEK293 GRK2,3,5,6 KO cells expressing the membrane-localisation-deficient GRK5 4A mutant (also at varied levels), with PAR1-YFP, EPCR-Halo and Rluc-βarr2; 1 nM thrombin or 20 nM APC, 37°C
[11] = biological target: T2, thrombin-activated protease-activated receptor-1 fused to yellow fluorescent protein (PAR1-YFP WT after cleavage at R41) (human); test: FRET or BRET; HEK293 βarr1,2 KO cells expressing PAR1-YFP, EPCR-Halo and 100 ng Nluc-βarr2 or Nluc-βarr1 (WT or dFLR); 1 nM thrombin or 20 nM APC, 37°C
[12] = biological target: T1, APC-activated protease-activated receptor-1 fused to yellow fluorescent protein (PAR1-YFP WT after cleavage at R46) (human); test: as above

binding [5]: binds
binding [6]: no binding
binding [7]: no binding
binding [8]: no binding
binding [9]: binds
binding [10]: no binding
Substance: Renilla luciferase (Rluc)-tagged β-arrestin-2 (from UniProt P32121 1-409)
binding [1]: no binding (condition: with 10 μM vorapaxar)
binding [2]: no binding (condition: with 10 μM vorapaxar)
binding [3]: no binding (condition: cells lacking EPCR expression)
binding [4]: no binding (condition: GRK2,3,5,6 KO cells without GRK5)

binding [11]: binds
Substance: Nanoluciferase (Nluc)-tagged β-arrestin-1 WT (from UniProt P49407 1-418)

binding [12]: binds
Substance: Nanoluciferase (Nluc)-tagged β-arrestin-2 WT (from UniProt P32121 1-409)
